Source: the supplement of paper PMC10849652
This is one part of the list.

Sequences of proteins named here, by UniProt entry; tags and fusion partners are left off. A change or cut given only in a name is not applied to a line headed by its entry.
UniProt Q92837: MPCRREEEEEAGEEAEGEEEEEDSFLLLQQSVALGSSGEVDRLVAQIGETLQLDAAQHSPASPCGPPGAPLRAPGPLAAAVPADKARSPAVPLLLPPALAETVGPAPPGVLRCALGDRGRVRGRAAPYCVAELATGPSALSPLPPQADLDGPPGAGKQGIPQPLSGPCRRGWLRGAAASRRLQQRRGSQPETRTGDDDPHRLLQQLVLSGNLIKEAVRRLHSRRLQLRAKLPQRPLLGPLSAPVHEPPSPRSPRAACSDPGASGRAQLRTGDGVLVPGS
UniProt Q17RS7: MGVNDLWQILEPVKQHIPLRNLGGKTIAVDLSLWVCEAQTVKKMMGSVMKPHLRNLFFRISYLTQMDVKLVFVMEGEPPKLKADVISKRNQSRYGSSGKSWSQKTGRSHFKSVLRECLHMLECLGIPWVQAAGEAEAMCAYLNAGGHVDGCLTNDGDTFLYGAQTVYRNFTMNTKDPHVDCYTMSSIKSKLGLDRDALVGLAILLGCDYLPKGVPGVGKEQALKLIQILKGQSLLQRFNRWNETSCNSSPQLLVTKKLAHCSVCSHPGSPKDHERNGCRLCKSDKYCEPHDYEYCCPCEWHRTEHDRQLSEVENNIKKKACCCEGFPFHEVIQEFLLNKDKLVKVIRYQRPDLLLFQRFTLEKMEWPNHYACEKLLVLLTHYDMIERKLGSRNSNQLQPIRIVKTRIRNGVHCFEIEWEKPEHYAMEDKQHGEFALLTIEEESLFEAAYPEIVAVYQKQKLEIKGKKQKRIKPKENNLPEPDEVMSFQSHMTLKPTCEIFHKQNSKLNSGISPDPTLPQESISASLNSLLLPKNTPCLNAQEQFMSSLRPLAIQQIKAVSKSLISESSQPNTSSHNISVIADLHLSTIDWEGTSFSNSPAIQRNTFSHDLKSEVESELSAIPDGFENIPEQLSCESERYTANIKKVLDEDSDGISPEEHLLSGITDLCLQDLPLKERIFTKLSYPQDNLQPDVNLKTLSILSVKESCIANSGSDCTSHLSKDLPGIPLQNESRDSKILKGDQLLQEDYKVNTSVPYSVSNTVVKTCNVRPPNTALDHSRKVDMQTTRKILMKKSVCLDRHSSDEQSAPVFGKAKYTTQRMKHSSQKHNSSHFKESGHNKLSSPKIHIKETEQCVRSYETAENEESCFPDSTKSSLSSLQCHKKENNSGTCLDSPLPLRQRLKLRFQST
UniProt P27469: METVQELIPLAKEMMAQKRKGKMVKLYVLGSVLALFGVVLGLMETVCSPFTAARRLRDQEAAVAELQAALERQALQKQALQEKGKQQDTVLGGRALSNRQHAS
UniProt Q8TAK5: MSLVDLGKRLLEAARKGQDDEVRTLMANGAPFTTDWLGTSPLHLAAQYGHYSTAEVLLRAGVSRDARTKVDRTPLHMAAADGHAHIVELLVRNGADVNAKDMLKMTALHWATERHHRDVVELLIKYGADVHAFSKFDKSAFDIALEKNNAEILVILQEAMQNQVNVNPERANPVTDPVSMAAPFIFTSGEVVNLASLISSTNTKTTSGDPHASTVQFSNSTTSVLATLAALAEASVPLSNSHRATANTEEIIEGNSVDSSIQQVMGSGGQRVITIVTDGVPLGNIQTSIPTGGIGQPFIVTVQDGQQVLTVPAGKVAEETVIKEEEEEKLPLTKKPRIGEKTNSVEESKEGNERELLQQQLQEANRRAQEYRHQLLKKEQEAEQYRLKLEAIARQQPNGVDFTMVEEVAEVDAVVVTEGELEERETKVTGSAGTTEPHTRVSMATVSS
UniProt Q8N4A0: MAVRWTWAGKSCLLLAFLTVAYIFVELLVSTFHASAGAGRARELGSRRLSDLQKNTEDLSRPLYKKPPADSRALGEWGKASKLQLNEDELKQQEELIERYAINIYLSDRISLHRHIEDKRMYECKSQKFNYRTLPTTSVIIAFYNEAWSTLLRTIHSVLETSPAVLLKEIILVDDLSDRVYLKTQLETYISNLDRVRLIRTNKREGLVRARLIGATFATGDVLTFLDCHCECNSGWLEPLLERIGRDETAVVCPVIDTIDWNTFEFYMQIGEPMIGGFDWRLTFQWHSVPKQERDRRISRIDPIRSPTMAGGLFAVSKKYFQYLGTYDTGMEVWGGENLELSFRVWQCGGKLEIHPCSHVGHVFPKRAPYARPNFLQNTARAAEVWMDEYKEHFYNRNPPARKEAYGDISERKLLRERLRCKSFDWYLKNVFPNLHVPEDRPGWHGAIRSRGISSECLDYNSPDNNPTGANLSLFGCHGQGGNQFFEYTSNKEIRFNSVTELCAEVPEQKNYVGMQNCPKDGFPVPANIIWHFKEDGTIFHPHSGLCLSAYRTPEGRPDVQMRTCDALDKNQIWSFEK
UniProt P28676: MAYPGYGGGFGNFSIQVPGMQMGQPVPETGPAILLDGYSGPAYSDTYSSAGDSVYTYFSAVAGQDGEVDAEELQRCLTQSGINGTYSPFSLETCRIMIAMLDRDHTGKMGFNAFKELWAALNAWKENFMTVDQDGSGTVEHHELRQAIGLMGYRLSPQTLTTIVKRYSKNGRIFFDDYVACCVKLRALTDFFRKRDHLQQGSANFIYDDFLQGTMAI
UniProt P19526, whole entry, looked up: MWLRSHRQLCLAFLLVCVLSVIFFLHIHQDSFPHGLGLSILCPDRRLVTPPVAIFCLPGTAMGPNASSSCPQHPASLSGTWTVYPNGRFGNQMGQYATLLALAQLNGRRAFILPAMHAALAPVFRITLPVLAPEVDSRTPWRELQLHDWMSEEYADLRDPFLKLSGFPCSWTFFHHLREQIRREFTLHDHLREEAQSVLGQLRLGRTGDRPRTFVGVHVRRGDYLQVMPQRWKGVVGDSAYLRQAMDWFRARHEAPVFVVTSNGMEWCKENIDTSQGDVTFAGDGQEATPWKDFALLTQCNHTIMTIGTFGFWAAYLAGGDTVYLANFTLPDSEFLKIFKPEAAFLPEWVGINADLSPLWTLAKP
UniProt Q14435: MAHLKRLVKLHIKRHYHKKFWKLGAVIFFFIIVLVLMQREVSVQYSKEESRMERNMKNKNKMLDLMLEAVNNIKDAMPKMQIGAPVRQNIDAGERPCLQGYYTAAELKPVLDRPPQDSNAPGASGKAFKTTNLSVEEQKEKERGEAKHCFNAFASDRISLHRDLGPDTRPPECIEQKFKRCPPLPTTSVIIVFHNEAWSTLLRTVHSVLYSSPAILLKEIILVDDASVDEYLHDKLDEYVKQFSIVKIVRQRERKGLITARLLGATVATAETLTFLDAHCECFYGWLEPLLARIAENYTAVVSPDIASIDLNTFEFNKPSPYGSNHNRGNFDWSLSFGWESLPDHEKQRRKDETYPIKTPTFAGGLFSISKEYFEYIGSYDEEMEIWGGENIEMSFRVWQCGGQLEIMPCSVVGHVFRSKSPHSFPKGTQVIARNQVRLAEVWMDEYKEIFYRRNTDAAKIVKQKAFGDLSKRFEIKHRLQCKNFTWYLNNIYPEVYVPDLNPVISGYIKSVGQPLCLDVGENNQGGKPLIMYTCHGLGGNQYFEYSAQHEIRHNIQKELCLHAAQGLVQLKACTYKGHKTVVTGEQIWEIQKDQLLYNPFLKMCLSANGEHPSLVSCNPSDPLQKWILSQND
UniProt Q9UET6: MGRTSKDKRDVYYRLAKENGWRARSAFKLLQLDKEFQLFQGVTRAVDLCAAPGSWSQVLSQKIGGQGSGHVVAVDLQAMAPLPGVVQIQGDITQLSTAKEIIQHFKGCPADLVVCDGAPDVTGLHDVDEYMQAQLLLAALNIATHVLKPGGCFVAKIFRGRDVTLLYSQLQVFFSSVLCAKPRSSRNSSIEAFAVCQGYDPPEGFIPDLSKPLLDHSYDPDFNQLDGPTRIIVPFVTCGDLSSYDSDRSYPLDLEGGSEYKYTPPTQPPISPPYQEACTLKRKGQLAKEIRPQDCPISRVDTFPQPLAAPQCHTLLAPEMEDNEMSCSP
UniProt P22083, whole entry, looked up: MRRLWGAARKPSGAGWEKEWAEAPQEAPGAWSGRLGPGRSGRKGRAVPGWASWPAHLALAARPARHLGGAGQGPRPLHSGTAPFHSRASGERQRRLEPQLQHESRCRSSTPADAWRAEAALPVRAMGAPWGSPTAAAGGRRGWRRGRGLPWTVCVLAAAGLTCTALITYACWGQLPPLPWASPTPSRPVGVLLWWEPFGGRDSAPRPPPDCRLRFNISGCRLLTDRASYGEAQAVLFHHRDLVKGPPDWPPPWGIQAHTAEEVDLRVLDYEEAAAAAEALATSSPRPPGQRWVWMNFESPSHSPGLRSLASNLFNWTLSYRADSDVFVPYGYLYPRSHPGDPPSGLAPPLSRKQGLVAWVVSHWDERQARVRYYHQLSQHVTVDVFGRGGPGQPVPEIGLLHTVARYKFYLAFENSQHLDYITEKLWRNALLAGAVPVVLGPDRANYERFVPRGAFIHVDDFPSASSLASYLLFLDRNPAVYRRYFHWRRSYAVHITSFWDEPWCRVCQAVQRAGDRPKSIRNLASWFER
UniProt P24522: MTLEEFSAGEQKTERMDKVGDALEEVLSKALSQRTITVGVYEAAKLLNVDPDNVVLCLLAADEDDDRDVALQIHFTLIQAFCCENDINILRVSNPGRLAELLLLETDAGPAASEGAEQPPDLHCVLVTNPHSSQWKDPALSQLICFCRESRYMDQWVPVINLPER
UniProt Q9UM11, whole entry, looked up: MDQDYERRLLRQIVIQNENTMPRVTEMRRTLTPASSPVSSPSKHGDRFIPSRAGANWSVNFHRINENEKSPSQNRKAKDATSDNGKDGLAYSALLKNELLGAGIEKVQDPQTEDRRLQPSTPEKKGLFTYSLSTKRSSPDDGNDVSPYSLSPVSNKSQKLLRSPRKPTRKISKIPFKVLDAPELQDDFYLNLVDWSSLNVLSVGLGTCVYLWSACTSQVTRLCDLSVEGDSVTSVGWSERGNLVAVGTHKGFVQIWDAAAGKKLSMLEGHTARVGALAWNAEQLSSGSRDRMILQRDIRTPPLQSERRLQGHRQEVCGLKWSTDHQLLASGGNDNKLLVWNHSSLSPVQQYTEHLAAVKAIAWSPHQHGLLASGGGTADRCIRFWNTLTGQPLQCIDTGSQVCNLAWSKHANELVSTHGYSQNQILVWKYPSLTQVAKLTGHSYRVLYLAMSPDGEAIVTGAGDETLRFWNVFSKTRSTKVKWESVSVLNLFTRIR
UniProt O14926: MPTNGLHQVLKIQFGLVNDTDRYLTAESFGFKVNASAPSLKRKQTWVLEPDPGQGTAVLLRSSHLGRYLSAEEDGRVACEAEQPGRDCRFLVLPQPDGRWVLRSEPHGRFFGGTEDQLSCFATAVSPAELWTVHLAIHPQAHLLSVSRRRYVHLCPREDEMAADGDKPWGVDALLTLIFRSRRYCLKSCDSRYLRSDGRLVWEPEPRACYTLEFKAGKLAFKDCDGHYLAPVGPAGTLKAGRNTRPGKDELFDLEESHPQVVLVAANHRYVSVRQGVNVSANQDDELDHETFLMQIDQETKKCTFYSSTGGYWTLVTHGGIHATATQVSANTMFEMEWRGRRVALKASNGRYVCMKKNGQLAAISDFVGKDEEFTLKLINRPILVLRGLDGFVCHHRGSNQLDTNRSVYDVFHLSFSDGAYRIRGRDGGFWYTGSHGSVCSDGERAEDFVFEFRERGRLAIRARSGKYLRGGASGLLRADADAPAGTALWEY

Legend:
Test in all cases: log2 fold change, soluble protein after heating vs DMSO (PISA); higher = thermal stabilisation; K562 lysate, 10 uM; active = over 0.2 and 3.5 SD of the protein, either way, in both replicates (recomputed)
[1] = compound: C/C(=N\NC(=O)C1=CC(=CC=C1)S(=O)(=O)N2CCOCC2)/C3=C(C=CC(=C3)Cl)O
In short: (§1)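 To prepare the extract, K562 pellets were dounce-homogenised in PBS pH 7.4 with 1 mM MgCl2, giving crude material at 1 mg/mL protein. This was treated with 10 μM compound for 30 min, then heated in aliquots for 3 min over 48°C-58°C before pooling and addition of NP-40 to 0.5% at 4°C. Centrifugation at 21,000xg for 90 min left soluble protein in the supernatant, which TMTpro 16plex LC-MS/MS quantified with equalised channel sums. Results are log-two fold changes in thermal stability compared with solvent controls, from duplicates.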

[2] = compound: C1=CC2=C(C=CC(=C2)/C=C\3/C(=O)NC(=NCC4=CC=CS4)S3)N=C1
In short: as §1

[3] = compound: C1=CC=C2C(=C1)C3=NNC4=CC=CC(=C43)C2=O
In short: as §1

[4] = compound: C1CCN(C1)C(=O)NC2=CC=CC(=C2)NC3=NC=C(C(=N3)NCCC4=CN=CN4)Br
In short: as §1

[5] = compound: C1CN(CCC1(CC2=CC=C(C=C2)Cl)N)C3=NC=NC4=C3C=CN4
In short: as §1

[6] = compound: CC1=C(C2=C(C=C1)C(=O)C3=CC=CC=C3N2CCCN)C
In short: as §1

[7] = compound: C1=CC=C(C=C1)C2=NC(=C(N2)C3=CC=NC=C3)C4=CC(=C(C=C4)Cl)O
In short: as §1

IRAK-1-4 Inhibitor I = compound: C1COCCN1CCN2C3=CC=CC=C3N=C2NC(=O)C4=CC(=CC=C4)[N+](=O)[O-] [IRAK-1-4 Inhibitor I]
In short: as §1

ralimetinib = compound: CC(C)(C)Cn1c(N)nc2ccc(-c3[nH]c(C(C)(C)C)nc3-c3ccc(F)cc3)nc21 [ralimetinib]
In short: as §1

[8] = compound: CC(C)(O)CC(=O)NCCn1ccc2ncnc(Nc3ccc(Oc4cccc(C(F)(F)F)c4)c(Cl)c3)c21
In short: as §1

[9] = compound: CC1=C(C(CC(=O)N1)C2=CC=C(C=C2)C(F)(F)F)C(=O)NC3=C(C=C4C(=C3)C=NN4)F
In short: as §1

[10] = compound: CC1=C(C=C(C=C1)NC(=O)C2=CC(=CC=C2)C(C)(C)C#N)NC3=CC4=C(C=C3)N=CN(C4=O)C
In short: as §1

[11] = compound: CC1=C(C=C(C=C1)NC(=O)C2=CC(=CC=C2)N(C)C)NC(=O)C3=CC=C(C=C3)O
In short: as §1

erlotinib = compound: C#Cc1cccc(Nc2ncnc3cc(OCCOC)c(OCCOC)cc23)c1 [erlotinib]
In short: as §1

[12] = compound: C1=CC(=CC=C1C2=NC3=C(N2)C=C(C=C3)C(=O)N)OC4=CC=C(C=C4)Cl
In short: as §1

[13] = compound: CC(C)C1=C2N=C(C=C(N2N=C1)NCC3=CC=CC=C3)NCCCCCCN
In short: as §1

[14] = compound: C1=CC2=NC=CN=C2C=C1/C=C/3\C(=O)NC(=O)S3
In short: as §1

ibrutinib = compound: C=CC(=O)N1CCC[C@@H](n2nc(-c3ccc(Oc4ccccc4)cc3)c3c(N)ncnc32)C1 [ibrutinib]
In short: as §1

[15] = compound: CC(=O)c1cnc2ccc(-c3cc(Cl)c(O)c(Cl)c3)nc2c1N[C@H]1CC[C@H](CN(C)C)CC1
In short: as §1

[16] = compound: CC1=CC=C(C=C1)SC2=C3C=C(SC3=CN=C2)C(=O)N
In short: as §1

Measured: log2 fold change

FRAT1 (UniProt Q92837)
inactive: [1] -0.126 | [2] -0.279 | [3] 0.103 | [4] 0.074 | [5] -0.063 | [6] -0.121

GEN1 (UniProt Q17RS7)
inactive: [1] -0.036 | [2] -0.035 | [7] 0.046 | [3] 0.099 | [4] -0.199 | [5] -0.045 | IRAK-1-4 Inhibitor I -0.115 | ralimetinib 0.011 | [8] -0.048 | [9] -0.007 | [6] -0.012 | [10] -0.002 | [11] 0.093

FUS (UniProt H3BPE7)
inactive: [6] -0.018

G0S2 (UniProt P27469)
inactive: erlotinib 0.179 | [12] 0.034 | [4] 0.064 | [5] 0.13 | [13] -0.07 | [9] -0.073 | [10] 0.08

GABPB2 (UniProt Q8TAK5)
inactive: [14] 0.099 | [7] 0.071 | [4] 0.086 | [5] -0.214 | IRAK-1-4 Inhibitor I -0.029 | ibrutinib -0.2 | ralimetinib 0.051 | [8] -0.037 | [6] 0.087 | [10] -0.016 | [11] 0.099

GALNT4 (UniProt Q8N4A0)
inactive: [1] 0.011 | [2] -0.062 | [14] -0.107 | [3] 0.014 | [4] -0.071 | [5] 0.086 | ibrutinib 0.039 | [15] 0.113 | [6] 0.096 | [10] 0.056 | [16] 0.037

GCA (UniProt P28676)
inactive: erlotinib -0.115 | [12] -0.037 | [15] -0.134 | [13] 0.191 | [9] 0.173 | [16] 0.123

FUT1 (UniProt P19526)
inactive: [10] -0.114

GALNT3 (UniProt Q14435)
inactive: [14] 0.012 | [4] -0.013 | [5] 0.079 | ibrutinib 0.165 | [10] -0.092

FTSJ1 isoform 2 (UniProt Q9UET6)
inactive: [1] -0.149 | [2] 0.055 | [3] -0.039 | [4] 0.051 | [5] 0.059 | [15] 0.026 | [16] 0.001

FUT4 (UniProt P22083)
inactive: [4] -0.245 | [5] 0.003 | [9] -0.033 | [6] -0.038 | [10] -0.019

GARS1 (UniProt H7C443)
inactive: [14] 0.011 | ibrutinib -0.06 | [15] 0.019 | [16] 0.072

GADD45A (UniProt P24522)
inactive: [7] 0.097 | IRAK-1-4 Inhibitor I -0.003 | ralimetinib -0.117 | [8] 0.129 | [9] -0.021 | [10] 0.049 | [11] -0.062

FZR1 isoform 2 (UniProt Q9UM11)
inactive: [14] 0.099 | ibrutinib 0.074

FSCN2 isoform 2 (UniProt O14926)
inactive: [1] 0.193 | [2] -0.029 | [3] -0.308 | [4] 0.092 | [5] 0.005 | [10] -0.174
